Measurements from US20150329863, “APTAMERS INHIBITING THE ENZYMATIC ACTIVITY OF TYROSINASE” (L V M H RECHERCHE, published 2015).

Molecular target: T1, tyrosinase (endogenous, normal human melanocytes) (Homo sapiens) (UniProt P14679)
T1 sequence (looked up, limits assumed): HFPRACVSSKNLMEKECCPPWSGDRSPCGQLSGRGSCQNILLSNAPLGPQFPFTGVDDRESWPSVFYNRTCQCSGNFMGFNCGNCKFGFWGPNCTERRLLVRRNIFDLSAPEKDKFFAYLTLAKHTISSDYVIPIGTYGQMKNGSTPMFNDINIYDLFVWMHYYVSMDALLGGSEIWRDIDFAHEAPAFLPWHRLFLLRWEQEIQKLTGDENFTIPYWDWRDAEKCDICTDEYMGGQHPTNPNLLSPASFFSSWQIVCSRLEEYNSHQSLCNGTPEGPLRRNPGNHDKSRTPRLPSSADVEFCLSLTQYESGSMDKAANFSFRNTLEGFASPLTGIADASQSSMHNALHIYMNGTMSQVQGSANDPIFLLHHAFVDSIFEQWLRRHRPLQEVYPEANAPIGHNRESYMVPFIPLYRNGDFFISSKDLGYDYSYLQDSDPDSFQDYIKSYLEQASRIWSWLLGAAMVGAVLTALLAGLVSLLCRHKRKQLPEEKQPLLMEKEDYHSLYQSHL
Test: activity in cells
Conditions: protein in cells, single-stranded DNA

## GCCTCCTGTCGAACGCAATGGGCGCAGATTGGAAGGC [T10.1A]
inhibits, but less than T10.1, in particular at 4 and 20 nM, variant of T10.1
  functional effect of the aptamer: less active

## GCCTGTTGTGAGCCTCCTGTCGAACGCAATGGGCGCAGATTGGAAGGCCTAGCATTGAGCGTTTATTCTTGTCTCCC [T10.1]
Results similar to round 10 pool (greater than 75% effect), 4-200 nM, no dose dependence
  functional effect of the aptamer: active

## CGCAATGGGCG [T10.1D]
Lowest inhibition, not significant at 4 and 20 nM, significant at 100 and 200 nM, variant of T10.1
  functional effect of the aptamer: less active

The comparison behind a weaker result is the experiment's own reference, which may not be listed here. Where a protein sequence is shown, tags need not be part of it.
